In patent US20250026827A1:
No constants are given. Whether binding was seen depends on the method and setting. Some entries that bind do so weakly or less than the wild type.

Chains of the proteins cited; added tags and fusions are not shown. Lines headed by an entry give the natural chain unless they say otherwise; changes in a name come on top.
UniProt O00241: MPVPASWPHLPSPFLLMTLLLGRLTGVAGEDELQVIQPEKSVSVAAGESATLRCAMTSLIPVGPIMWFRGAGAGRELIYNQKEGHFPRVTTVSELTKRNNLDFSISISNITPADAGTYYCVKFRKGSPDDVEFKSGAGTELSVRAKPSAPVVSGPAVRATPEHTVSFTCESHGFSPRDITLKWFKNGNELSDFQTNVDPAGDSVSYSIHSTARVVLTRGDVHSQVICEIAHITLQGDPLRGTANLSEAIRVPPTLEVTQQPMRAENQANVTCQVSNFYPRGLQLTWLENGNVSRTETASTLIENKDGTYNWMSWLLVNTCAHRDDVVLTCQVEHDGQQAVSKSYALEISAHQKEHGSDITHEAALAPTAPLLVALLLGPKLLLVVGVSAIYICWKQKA

Biological target: human SIRPβ1 domain 1 (D1) Fc fusion (human) (UniProt O00241)
Assay: Octet, Fab monovalent; binding kinetics showed poor fit to 1:1 model

- binding: binds
B1: SB-31 Fab (Fab, V domains shown)
VH: QVQLVQSGAEVKKPGASVKVSCKASGYTFTSYYMHWVRQAPGQGLEWMGIINPGGGSTSYAQKFQGRVTMTRDTSTSTVYMELSSLRSEDTAVYYCAREGLYSSGWYIDVWGQGTLVTVSS
VL: DIQMTQSPSSVSASVGDRVTITCRASQGISSWLAWYQQKPGKAPKLLIYAASSLQSGVPSRFSGSGSGTDFTLTISSLQPEDFATYYCQQAVSHPFTFGGGTKVEIK
